Results taken from the supplement of paper PMC8728848.
Some of the results follow.

What was measured:
Experiment in all cases: glycan array binding signal (z-score within array); higher = stronger binding
Settings in all cases: glycan notation: IUPAC condensed, linker removed
Gal3S(b1-4)Glc = molecular target: Gal3S(b1-4)Glc
Method in brief: (§1)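 From the Consortium for Functional Glycomics database, 3228 arrays were curated, keeping only those whose protein sequence was available. Binding is given as a within-array Z-score averaged across arrays sharing a protein sequence and across linkers. Negative Z-scores can be read as non-binding.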

Gal3S(b1-4)Glc6S = molecular target: Gal3S(b1-4)Glc6S
Method in brief: as §1

Gal3S(b1-4)GlcNAc = molecular target: Gal3S(b1-4)GlcNAc
Method in brief: as §1

[1] = molecular target: Gal3S(b1-4)[Fuc(a1-3)]Glc6S
Method in brief: as §1

[2] = molecular target: Gal3S(b1-4)[Fuc(a1-3)]GlcNAc
Method in brief: as §1

[3] = molecular target: Gal3S(b1-4)[Fuc(a1-3)]GlcNAc6S
Method in brief: as §1

Gal3S4S(b1-4)GlcNAc = molecular target: Gal3S4S(b1-4)GlcNAc
Method in brief: as §1

Gal3S6S(b1-4)GlcNAc = molecular target: Gal3S6S(b1-4)GlcNAc
Method in brief: as §1

Gal3S6S(b1-4)GlcNAc6S = molecular target: Gal3S6S(b1-4)GlcNAc6S
Method in brief: as §1

Gal4S(b1-4)GlcNAc = molecular target: Gal4S(b1-4)GlcNAc
Method in brief: as §1

Gal4S6S(b1-4)GlcNAc = molecular target: Gal4S6S(b1-4)GlcNAc
Method in brief: as §1

Gal6P(b1-4)GlcNAc = molecular target: Gal6P(b1-4)GlcNAc
Method in brief: as §1

Gal6S(b1-3)GlcNAc = molecular target: Gal6S(b1-3)GlcNAc
Method in brief: as §1

Gal6S(b1-3)GlcNAc6S = molecular target: Gal6S(b1-3)GlcNAc6S
Method in brief: as §1

Gal6S(b1-4)Glc = molecular target: Gal6S(b1-4)Glc
Method in brief: as §1

Gal6S(b1-4)Glc6S = molecular target: Gal6S(b1-4)Glc6S
Method in brief: as §1

Gal6S(b1-4)GlcNAc = molecular target: Gal6S(b1-4)GlcNAc
Method in brief: as §1

Gal6S(b1-4)GlcNAc6S = molecular target: Gal6S(b1-4)GlcNAc6S
Method in brief: as §1

GalNAc(a1-3)Gal = molecular target: GalNAc(a1-3)Gal
Method in brief: as §1

GalNAc(a1-3)GalNAc = molecular target: GalNAc(a1-3)GalNAc
Method in brief: as §1

[4] = molecular target: GalNAc(a1-3)GalNAc(b1-3)Gal(a1-4)Gal(b1-4)Glc
Method in brief: as §1

[5] = molecular target: GalNAc(a1-3)GalNAc(b1-3)Gal(a1-4)Gal(b1-4)GlcNAc
Method in brief: as §1

GalNAc(b1-3)Gal = molecular target: GalNAc(b1-3)Gal
Method in brief: as §1

[6] = molecular target: GalNAc(b1-3)Gal(a1-4)Gal(b1-4)GlcNAc
Method in brief: as §1

[7] = molecular target: GalNAc(b1-3)Gal(a1-4)Gal(b1-4)GlcNAc(b1-3)Gal(b1-4)Glc
Method in brief: as §1

[8] = molecular target: GalNAc(b1-3)Gal(a1-6)Gal(b1-4)Glc
Method in brief: as §1

GalNAc(b1-3)GalNAc = molecular target: GalNAc(b1-3)GalNAc
Method in brief: as §1

GalNAc(b1-3)GlcNAc = molecular target: GalNAc(b1-3)GlcNAc
Method in brief: as §1

GalNAc(b1-4)Gal(b1-4)Glc = molecular target: GalNAc(b1-4)Gal(b1-4)Glc
Method in brief: as §1

GalNAc(b1-4)GlcNAc = molecular target: GalNAc(b1-4)GlcNAc
Method in brief: as §1

[9] = molecular target: GalNAc(b1-4)GlcNAc(b1-2)Man
Method in brief: as §1

[10] = molecular target: GalNAc(b1-4)GlcNAc(b1-2)Man(a1-3)[GalNAc(b1-4)GlcNAc(b1-2)Man(a1-6)]Man(b1-4)GlcNAc(b1-4)GlcNAc
Method in brief: as §1

[11] = molecular target: GalNAc(b1-4)GlcNAc(b1-3)GalNAc(b1-4)GlcNAc
Method in brief: as §1

GalNAc(b1-4)GlcNAc6S = molecular target: GalNAc(b1-4)GlcNAc6S
Method in brief: as §1

GalNAc(b1-6)GalNAc = molecular target: GalNAc(b1-6)GalNAc
Method in brief: as §1

GalNAc3S(b1-4)GlcNAc = molecular target: GalNAc3S(b1-4)GlcNAc
Method in brief: as §1

GalNAc3S(b1-4)GlcNAc3S = molecular target: GalNAc3S(b1-4)GlcNAc3S
Method in brief: as §1

[12] = molecular target: GalNAc3S(b1-4)[Fuc(a1-3)]GlcNAc
Method in brief: as §1

GalNAc4S6S(b1-4)GlcNAc = molecular target: GalNAc4S6S(b1-4)GlcNAc
Method in brief: as §1

GalNAc6S(b1-4)GlcNAc = molecular target: GalNAc6S(b1-4)GlcNAc
Method in brief: as §1

Glc(a1-4)Glc = molecular target: Glc(a1-4)Glc
Method in brief: as §1

[13] = molecular target: Glc(a1-4)Glc(a1-4)Glc(a1-4)Glc
Method in brief: as §1

Glc(a1-6)Glc(a1-6)Glc = molecular target: Glc(a1-6)Glc(a1-6)Glc
Method in brief: as §1

[14] = molecular target: Glc(a1-6)Glc(a1-6)Glc(a1-6)Glc
Method in brief: as §1

Glc(b1-4)Glc = molecular target: Glc(b1-4)Glc
Method in brief: as §1

B1: Clec18A (Homo sapiens) (protein)
chain: PFHTCDLRIDGDCFMVSSEADTYYRARMKCQRKGGVLAQIKRQKVQDILAFYLGRLETTNEVIDSDFETRNFWIGLTYKTAKDSFRWATGEHQAFTSFAFGQPDNHGFGNCVELQASAAFNWNDQRCKTRNRYICQ
Gal3S(b1-4)Glc
  glycan array binding signal (z-score): -0.446
Gal3S(b1-4)Glc6S
  glycan array binding signal (z-score): -0.156
Gal3S(b1-4)GlcNAc
  glycan array binding signal (z-score): -0.415
[1]
  glycan array binding signal (z-score): 1.54
[2]
  glycan array binding signal (z-score): -0.492
[3]
  glycan array binding signal (z-score): 0.227
Gal3S4S(b1-4)GlcNAc
  glycan array binding signal (z-score): -0.677
Gal3S6S(b1-4)GlcNAc
  glycan array binding signal (z-score): -0.537
Gal3S6S(b1-4)GlcNAc6S
  glycan array binding signal (z-score): -0.21
Gal4S(b1-4)GlcNAc
  glycan array binding signal (z-score): -0.378
Gal4S6S(b1-4)GlcNAc
  glycan array binding signal (z-score): -0.79
Gal6P(b1-4)GlcNAc
  glycan array binding signal (z-score): -0.915
Gal6S(b1-3)GlcNAc
  glycan array binding signal (z-score): 3.79
Gal6S(b1-3)GlcNAc6S
  glycan array binding signal (z-score): -0.347
Gal6S(b1-4)Glc
  glycan array binding signal (z-score): -0.155
Gal6S(b1-4)Glc6S
  glycan array binding signal (z-score): 0.18
Gal6S(b1-4)GlcNAc
  glycan array binding signal (z-score): 0.079
Gal6S(b1-4)GlcNAc6S
  glycan array binding signal (z-score): 0.22
GalNAc(a1-3)Gal
  glycan array binding signal (z-score): -0.664
GalNAc(a1-3)GalNAc
  glycan array binding signal (z-score): 0.305
[4]
  glycan array binding signal (z-score): 0.599
[5]
  glycan array binding signal (z-score): -0.691
GalNAc(b1-3)Gal
  glycan array binding signal (z-score): 0.82
[6]
  glycan array binding signal (z-score): 1.13
[7]
  glycan array binding signal (z-score): -0.779
[8]
  glycan array binding signal (z-score): 0.373
GalNAc(b1-3)GalNAc
  glycan array binding signal (z-score): -0.752
GalNAc(b1-3)GlcNAc
  glycan array binding signal (z-score): 0.024
GalNAc(b1-4)Gal(b1-4)Glc
  glycan array binding signal (z-score): -0.71
GalNAc(b1-4)GlcNAc
  glycan array binding signal (z-score): -0.05
[9]
  glycan array binding signal (z-score): 0.033
[10]
  glycan array binding signal (z-score): 1.3
[11]
  glycan array binding signal (z-score): -0.852
GalNAc(b1-4)GlcNAc6S
  glycan array binding signal (z-score): 0.066
GalNAc(b1-6)GalNAc
  glycan array binding signal (z-score): 0.096
GalNAc3S(b1-4)GlcNAc
  glycan array binding signal (z-score): 0.9
GalNAc3S(b1-4)GlcNAc3S
  glycan array binding signal (z-score): -0.807
[12]
  glycan array binding signal (z-score): 2.83
GalNAc4S6S(b1-4)GlcNAc
  glycan array binding signal (z-score): -0.491
GalNAc6S(b1-4)GlcNAc
  glycan array binding signal (z-score): -0.023
Glc(a1-4)Glc
  glycan array binding signal (z-score): -0.275
[13]
  glycan array binding signal (z-score): -0.768
Glc(a1-6)Glc(a1-6)Glc
  glycan array binding signal (z-score): -0.771
[14]
  glycan array binding signal (z-score): -0.823
Glc(b1-4)Glc
  glycan array binding signal (z-score): -0.586
